Test results taken from article PMC5584760, “Rational design of drug-like compounds targeting Mycobacterium marinum MelF protein” (PLoS ONE, 2017).

System: MelF protein
Assay: Circular dichroism (CD) spectroscopy with and without inhibitors
Set-up: species or system Mycobacterium marinum
Details: CD far-UV 190–260 nm, K2D3, percentage; for β-Sheets content of MelF in presence of inhibitor: MelF alone 0.01; for α-Helices content of MelF in presence of inhibitor: MelF alone 91.77

Row | Compound | β-Sheets content of MelF in presence of inhibitor | α-Helices content of MelF in presence of inhibitor
1 | c1ccc(CC(Cc2nc3ccccc3[nH]2)c2nc3ccccc3[nH]2)cc1 (stereo not drawn) [compound 5255825, 2,2'-(3-phenyl-1,2-propanediyl)bis-1H-benzimidazole] | 0.01 | 93.21
2 | N~1~,N~1~-diethyl-N~4~-{6-methoxy-2-[2-(4-nitrophenyl)vinyl]-4-quinolinyl}-1,4-pentanediamine [compound 5255829] | 0.01 | 91.76
3 | CC(C)COc1ccc(-c2nn(-c3ccccc3)cc2CO)cc1 [compound 5175552, [3-(4-isobutoxyphenyl)-1-phenyl-1H-pyrazol-4-yl]methanol] | 0.01 | 91.76
4 | CCC(C)c1ccc(OCCSc2nc3ccccc3[nH]2)cc1 (stereo not drawn) [compound 6492687, 2-{[2-(4-sec-butylphenoxy)ethyl]thio}-1H-benzimidazole] | 0.01 | 94.75
5 | 2,2'-[3-(3-methoxyphenyl)-1,2-propanediyl]bis-1H-benzimidazole [compound 9125618] | 0.01 | 91.77
6 | 2-{[(2-methyl-6-phenyl-4-pyrimidinyl)thio]methyl}-1H-benzimidazole [compound 6513745] | 0.01 | 93.72
